Results deposited as PubChem BioAssay AID1159584 (Peter MacCallum Cancer Centre, 2016).

Screen: 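Knock-downs that harm CDH1-null cells more than parental MCF10A cells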 (primary screen)
Cells: human MCF10A breast epithelial cells, parental and CDH1-null
Knock-down reagent: siRNA against human genes
Measured: 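ATP luminescence (CellTiter-Glo) viability per line relative to mean mock wells over all plates, and the ratio of CDH1-null to parental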
Direction: CDH1-null / parental viability ratio: higher = CDH1-null cells survive relatively better than parental
Shown is one part, drawn at random, of about 18,000 reagents tested. Further read-outs or replicates are left out here. Not given: the amount of reagent, the time to read-out.

The first 2 entries, to show the layout:
ZNF236 → CDH1-null / parental viability ratio = 1.67
CEACAM5 → CDH1-null / parental viability ratio = 1.25

The listing, repeating the preview:
ZNF236 → CDH1-null / parental viability ratio = 1.67
CEACAM5 → CDH1-null / parental viability ratio = 1.25
CADM1 → CDH1-null / parental viability ratio = 0.84
WDR33 → CDH1-null / parental viability ratio = 0.75
SERINC5 → CDH1-null / parental viability ratio = 1.08
CNTLN → CDH1-null / parental viability ratio = 0.94
CANX → CDH1-null / parental viability ratio = 1.03
MCM4 → CDH1-null / parental viability ratio = 0.95
ANAPC1 → CDH1-null / parental viability ratio = 1.28
PHF2 → CDH1-null / parental viability ratio = 0.73
HAT1 → CDH1-null / parental viability ratio = 0.98
ATRN → CDH1-null / parental viability ratio = 1.09
KLHL13 → CDH1-null / parental viability ratio = 1.03
OR5T1 → CDH1-null / parental viability ratio = 1.05
SNRPN → CDH1-null / parental viability ratio = 0.95
ALKBH6 → CDH1-null / parental viability ratio = 0.93
KDELR3 → CDH1-null / parental viability ratio = 1.15
PEBP1 → CDH1-null / parental viability ratio = 1.16
CENPN → CDH1-null / parental viability ratio = 1.6
PRB3 → CDH1-null / parental viability ratio = 1.04
SPINK9 → CDH1-null / parental viability ratio = 0.91
PYGL → CDH1-null / parental viability ratio = 1.17
NPPA → CDH1-null / parental viability ratio = 1.36
PIK3R4 → CDH1-null / parental viability ratio = 0.62
PPP3CC → CDH1-null / parental viability ratio = 1.37
JMJD4 → CDH1-null / parental viability ratio = 1.1
STH → CDH1-null / parental viability ratio = 0.9
CRYZL1 → CDH1-null / parental viability ratio = 0.92
RETN → CDH1-null / parental viability ratio = 0.77
RBBP5 → CDH1-null / parental viability ratio = 0.92
PTPRB → CDH1-null / parental viability ratio = 1.04
PRKCE → CDH1-null / parental viability ratio = 1.02
SOST → CDH1-null / parental viability ratio = 0.98
BEND2 → CDH1-null / parental viability ratio = 1.17
SPIRE1 → CDH1-null / parental viability ratio = 0.96
